Measurements from publication doi:10.1101/2021.09.03.458272.
These are yes or no findings as the source states them, for the method shown. In cells and extracts the contact can be indirect. Some results given as binding are weak or reduced against the parent protein; the word gives no strength. Sequences can lack the tags named with a protein.

B1: GFP-USP8 (protein, UniProt P40818 1-1118)
chain: MPAVASVPKELYLSSSLKDLNKKTEVKPEKISTKSYVHSALKIFKTAEECRLDRDEERAYVLYMKYVTVYNLIKKRPDFKQQQDYFHSILGPGNIKKAVEEAERLSESLKLRYEEAEVRKKLEEKDRQEEAQRLQQKRQETGREDGGTLAKGSLENVLDSKDKTQKSNGEKNEKCETKEKGAITAKELYTMMTDKNISLIIMDARRMQDYQDSCILHSLSVPEEAISPGVTASWIEAHLPDDSKDTWKKRGNVEYVVLLDWFSSAKDLQIGTTLRSLKDALFKWESKTVLRNEPLVLEGGYENWLLCYPQYTTNAKVTPPPRRQNEEVSISLDFTYPSLEESIPSKPAAQTPPASIEVDENIELISGQNERMGPLNISTPVEPVAASKSDVSPIIQPVPSIKNVPQIDRTKKPAVKLPEEHRIKSESTNHEQQSPQSGKVIPDRSTKPVVFSPTLMLTDEEKARIHAETALLMEKNKQEKELRERQQEEQKEKLRKEEQEQKAKKKQEAEENEITEKQQKAKEEMEKKESEQAKKEDKETSAKRGKEITGVKRQSKSEHETSDAKKSVEDRGKRCPTPEIQKKSTGDVPHTSVTGDSGSGKPFKIKGQPESGILRTGTFREDTDDTERNKAQREPLTRARSEEMGRIVPGLPSGWAKFLDPITGTFRYYHSPTNTVHMYPPEMAPSSAPPSTPPTHKAKPQIPAERDREPSKLKRSYSSPDITQAIQEEEKRKPTVTPTVNRENKPTCYPKAEISRLSASQIRNLNPVFGGSGPALTGLRNLGNTCYMNSILQCLCNAPHLADYFNRNCYQDDINRSNLLGHKGEVAEEFGIIMKALWTGQYRYISPKDFKITIGKINDQFAGYSQQDSQELLLFLMDGLHEDLNKADNRKRYKEENNDHLDDFKAAEHAWQKHKQLNESIIVALFQGQFKSTVQCLTCHKKSRTFEAFMYLSLPLASTSKCTLQDCLRLFSKEEKLTDNNRFYCSHCRARRDSLKKIEIWKLPPVLLVHLKRFSYDGRWKQKLQTSVDFPLENLDLSQYVIGPKNNLKKYNLFSVSNHYGGLDGGHYTAYCKNAARQRWFKFDDHEVSDISVSSVKSSAAYILFYTSLGPRVTDVAT
B2: HA-Nrdp1 (pcDNA3.1 3x-HA-Nrdp1) (protein, UniProt Q9H4P4 1-317)
chain: MGYDVTRFQGDVDEDLICPICSGVLEEPVQAPHCEHAFCNACITQWFSQQQTCPVDRSVVTVAHLRPVPRIMRNMLSKLQIACDNAVFGCSAVVRLDNLMSHLSDCEHNPKRPVTCEQGCGLEMPKDELPNHNCIKHLRSVVQQQQTRIAELEKTSAEHKHQLAEQKRDIQLLKAYMRAIRSVNPNLQNLEETIEYNEILEWVNSLQPARVTRWGGMISTPDAVLQAVIKRSLVESGCPASIVNELIENAHERSWPQGLATLETRQMNRRYYENYVAKRIPGKQAVVVMACENQHMGDDMVQEPGLVMIFAHGVEEI

Key:
[1] = biological target: T1, endogenous RNF41/Nrdp1 (human (endogenous in HEK293T)) (UniProt Q9H4P4); test: co-IP
T1 sequence: B2 chain

[2] = biological target: T2, Flag-tagged full-length human CLEC16A (human) (UniProt Q2KHT3); test: co-IP
T2 sequence: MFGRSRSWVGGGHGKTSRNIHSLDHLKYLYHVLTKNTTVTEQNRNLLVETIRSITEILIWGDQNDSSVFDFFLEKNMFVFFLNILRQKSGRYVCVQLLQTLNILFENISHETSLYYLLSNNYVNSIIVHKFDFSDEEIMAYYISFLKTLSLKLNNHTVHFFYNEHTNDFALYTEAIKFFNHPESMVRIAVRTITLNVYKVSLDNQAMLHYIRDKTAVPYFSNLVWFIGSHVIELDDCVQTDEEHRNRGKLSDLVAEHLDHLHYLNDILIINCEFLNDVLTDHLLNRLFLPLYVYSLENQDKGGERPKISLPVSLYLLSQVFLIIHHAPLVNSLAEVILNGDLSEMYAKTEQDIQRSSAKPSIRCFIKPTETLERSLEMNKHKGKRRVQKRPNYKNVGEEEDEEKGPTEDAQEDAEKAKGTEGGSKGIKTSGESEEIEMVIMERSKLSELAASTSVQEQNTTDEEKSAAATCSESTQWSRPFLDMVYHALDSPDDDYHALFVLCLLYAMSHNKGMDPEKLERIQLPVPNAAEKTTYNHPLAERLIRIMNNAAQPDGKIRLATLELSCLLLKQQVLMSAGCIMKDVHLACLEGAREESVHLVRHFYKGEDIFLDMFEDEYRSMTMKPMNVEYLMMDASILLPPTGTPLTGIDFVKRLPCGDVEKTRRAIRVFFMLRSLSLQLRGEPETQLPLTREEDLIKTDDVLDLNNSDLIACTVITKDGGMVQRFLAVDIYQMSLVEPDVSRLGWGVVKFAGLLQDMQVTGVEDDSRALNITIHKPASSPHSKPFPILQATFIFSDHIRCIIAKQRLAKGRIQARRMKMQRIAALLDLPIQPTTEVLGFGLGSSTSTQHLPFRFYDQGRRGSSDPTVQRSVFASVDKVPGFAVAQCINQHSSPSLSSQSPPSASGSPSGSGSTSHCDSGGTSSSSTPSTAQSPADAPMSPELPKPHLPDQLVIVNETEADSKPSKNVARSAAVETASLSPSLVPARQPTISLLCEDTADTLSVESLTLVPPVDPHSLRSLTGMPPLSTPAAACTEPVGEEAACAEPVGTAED

| Binder | binding [1] | binding [2] |
| --- | --- | --- |
| B1 | binds | – |
| B2 | – | binds |
